In publication PMC11139901:
Read-outs that look alike come from different tables or passages of the source. Results are given in words; binding and its absence hold for the method and conditions named. In cells and extracts the contact can be indirect. These calls come from enrichment with a bait or labelling near it, and not all partners need be listed. Where a sequence is shown, tags or fusion partners need not be part of it. Each block holds one molecule with its values, some of them ahead of it.

Amino acid sequences for entries named in this document (tags omitted).
UniProt P26599: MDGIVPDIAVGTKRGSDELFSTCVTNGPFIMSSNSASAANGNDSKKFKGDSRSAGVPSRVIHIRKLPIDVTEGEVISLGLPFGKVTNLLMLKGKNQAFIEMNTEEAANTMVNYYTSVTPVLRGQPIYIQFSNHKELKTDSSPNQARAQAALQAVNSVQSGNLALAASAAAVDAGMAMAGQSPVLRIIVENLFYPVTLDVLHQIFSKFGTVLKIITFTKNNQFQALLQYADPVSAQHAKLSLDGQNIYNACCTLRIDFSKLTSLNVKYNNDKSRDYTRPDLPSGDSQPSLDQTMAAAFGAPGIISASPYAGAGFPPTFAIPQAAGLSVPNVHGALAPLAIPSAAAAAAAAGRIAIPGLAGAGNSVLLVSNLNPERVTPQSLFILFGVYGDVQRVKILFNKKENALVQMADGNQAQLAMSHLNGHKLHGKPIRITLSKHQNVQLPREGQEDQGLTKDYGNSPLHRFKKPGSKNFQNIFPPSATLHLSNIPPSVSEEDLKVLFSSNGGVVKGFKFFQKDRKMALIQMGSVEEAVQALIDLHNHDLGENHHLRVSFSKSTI

Key:
Assay in all cases: affinity purification with mass spectrometry; lysate (1 ml of 1 mg/ml) of 293T cells transfected with Dbr1-FLAG, anti-FLAG M2 magnetic beads, no nuclease treatment, eluted with SDS-PAGE loading dye; control: un-transfected 293T cells; semi-quantitative spectral counts
FLAG-tagged Dbr1 (human) [1] = target: T1, FLAG-tagged Dbr1 (human) (UniProt Q9UK59)
T1 sequence: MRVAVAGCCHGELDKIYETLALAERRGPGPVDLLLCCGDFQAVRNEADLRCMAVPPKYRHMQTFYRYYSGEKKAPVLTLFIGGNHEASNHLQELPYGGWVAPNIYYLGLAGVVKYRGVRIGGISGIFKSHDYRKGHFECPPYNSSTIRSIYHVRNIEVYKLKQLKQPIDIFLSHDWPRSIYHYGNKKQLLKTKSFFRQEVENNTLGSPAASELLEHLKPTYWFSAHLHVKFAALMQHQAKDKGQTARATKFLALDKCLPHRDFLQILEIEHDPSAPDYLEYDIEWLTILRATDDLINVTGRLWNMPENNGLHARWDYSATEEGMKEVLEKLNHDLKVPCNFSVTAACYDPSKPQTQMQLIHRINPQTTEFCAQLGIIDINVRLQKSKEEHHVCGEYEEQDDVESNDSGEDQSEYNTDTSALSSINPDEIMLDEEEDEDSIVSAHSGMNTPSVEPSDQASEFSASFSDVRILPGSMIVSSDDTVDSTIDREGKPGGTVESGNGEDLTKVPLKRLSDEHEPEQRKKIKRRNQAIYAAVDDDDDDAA

FLAG-tagged Dbr1 (human) [2] = target: T1, FLAG-tagged Dbr1 (human); remark: listed apart in the source
[3] = target: T2, FLAG-tagged Dbr1 (human), Q9UK59; conditions: remark: other sources report otherwise
T2 chain: T1 sequence

Molecule: PTBP1 (from UniProt P26599 1-557)
binding (FLAG-tagged Dbr1 (human) [1]): binds

Molecule: Cwf19L, the human homolog of yeast Drn1
binding (FLAG-tagged Dbr1 (human) [1]): binds

B1: HNRNPL (protein, UniProt P14866 1-589)
chain: MSRRLLPRAEKRRRRLEQRQQPDEQRRRSGAMVKMAAAGGGGGGGRYYGGGSEGGRAPKRLKTDNAGDQHGGGGGGGGGAGAAGGGGGGENYDDPHKTPASPVVHIRGLIDGVVEADLVEALQEFGPISYVVVMPKKRQALVEFEDVLGACNAVNYAADNQIYIAGHPAFVNYSTSQKISRPGDSDDSRSVNSVLLFTILNPIYSITTDVLYTICNPCGPVQRIVIFRKNGVQAMVEFDSVQSAQRAKASLNGADIYSGCCTLKIEYAKPTRLNVFKNDQDTWDYTNPNLSGQGDPGSNPNKRQRQPPLLGDHPAEYGGPHGGYHSHYHDEGYGPPPPHYEGRRMGPPVGGHRRGPSRYGPQYGHPPPPPPPPEYGPHADSPVLMVYGLDQSKMNCDRVFNVFCLYGNVEKVKFMKSKPGAAMVEMADGYAVDRAITHLNNNFMFGQKLNVCVSKQPAIMPGQSYGLEDGSCSYKDFSESRNNRFSTPEQAAKNRIQHPSNVLHFFNAPLEVTEENFFEICDELGVKRPSSVKVFSGKSERSSSGLLEWESKSDALETLGFLNHYQMKNPNGPYPYTLKLCFSTAQHAS
binding (FLAG-tagged Dbr1 (human) [2]): binds

B3: PRP19, Q9UMS4 1-504 (protein)
chain: MSLICSISNEVPEHPCVSPVSNHVYERRLIEKYIAENGTDPINNQPLSEEQLIDIKVAHPIRPKPPSATSIPAILKALQDEWDAVMLHSFTLRQQLQTTRQELSHALYQHDAACRVIARLTKEVTAAREALATLKPQAGLIVPQAVPSSQPSVVGAGEPMDLGELVGMTPEIIQKLQDKATVLTTERKKRGKTVPEELVKPEELSKYRQVASHVGLHSASIPGILALDLCPSDTNKILTGGADKNVVVFDKSSEQILATLKGHTKKVTSVVFHPSQDLVFSASPDATIRIWSVPNASCVQVVRAHESAVTGLSLHATGDYLLSSSDDQYWAFSDIQTGRVLTKVTDETSGCSLTCAQFHPDGLIFGTGTMDSQIKIWDLKERTNVANFPGHSGPITSIAFSENGYYLATAADDSSVKLWDLRKLKNFKTLQLDNNFEVKSLIFDQSGTYLALGGTDVQIYICKQWTEILHFTEHSGLTTGVAFGHHAKFIASTGMDRSLKFYSL
binding [3]: binds

B5: AQR, O60306 1-1485 (protein)
chain: MAAPAQPKKIVAPTVSQINAEFVTQLACKYWAPHIKKKSPFDIKVIEDIYEKEIVKSRFAIRKIMLLEFSQYLENYLWMNYSPEVSSKAYLMSICCMVNEKFRENVPAWEIFKKKPDHFPFFFKHILKAALAETDGEFSLHEQTVLLLFLDHCFNSLEVDLIRSQVQQLISLPMWMGLQLARLELELKKTPKLRKFWNLIKKNDEKMDPEAREQAYQERRFLSQLIQKFISVLKSVPLSEPVTMDKVHYCERFIELMIDLEALLPTRRWFNTILDDSHLLVHCYLSNLVRREEDGHLFSQLLDMLKFYTGFEINDQTGNALTENEMTTIHYDRITSLQRAAFAHFPELYDFALSNVAEVDTRESLVKFFGPLSSNTLHQVASYLCLLPTLPKNEDTTFDKEFLLELLVSRHERRISQIQQLNQMPLYPTEKIIWDENIVPTEYYSGEGCLALPKLNLQFLTLHDYLLRNFNLFRLESTYEIRQDIEDSVSRMKPWQSEYGGVVFGGWARMAQPIVAFTVVEVAKPNIGENWPTRVRADVTINLNVRDHIKDEWEGLRKHDVCFLITVRPTKPYGTKFDRRRPFIEQVGLVYVRGCEIQGMLDDKGRVIEDGPEPRPNLRGESRTFRVFLDPNQYQQDMTNTIQNGAEDVYETFNIIMRRKPKENNFKAVLETIRNLMNTDCVVPDWLHDIILGYGDPSSAHYSKMPNQIATLDFNDTFLSIEHLKASFPGHNVKVTVEDPALQIPPFRITFPVRSGKGKKRKDADVEDEDTEEAKTLIVEPHVIPNRGPYPYNQPKRNTIQFTHTQIEAIRAGMQPGLTMVVGPPGTGKTDVAVQIISNIYHNFPEQRTLIVTHSNQALNQLFEKIMALDIDERHLLRLGHGEEELETEKDFSRYGRVNYVLARRIELLEEVKRLQKSLGVPGDASYTCETAGYFFLYQVMSRWEEYISKVKNKGSTLPDVTEVSTFFPFHEYFANAPQPIFKGRSYEEDMEIAEGCFRHIKKIFTQLEEFRASELLRSGLDRSKYLLVKEAKIIAMTCTHAALKRHDLVKLGFKYDNILMEEAAQILEIETFIPLLLQNPQDGFSRLKRWIMIGDHHQLPPVIKNMAFQKYSNMEQSLFTRFVRVGVPTVDLDAQGRARASLCNLYNWRYKNLGNLPHVQLLPEFSTANAGLLYDFQLINVEDFQGVGESEPNPYFYQNLGEAEYVVALFMYMCLLGYPADKISILTTYNGQKHLIRDIINRRCGNNPLIGRPNKVTTVDRFQGQQNDYILLSLVRTRAVGHLRDVRRLVVAMSRARLGLYIFARVSLFQNCFELTPAFSQLTARPLHLHIIPTEPFPTTRKNGERPSHEVQIIKNMPQMANFVYNMYMHLIQTTHHYHQTLLQLPPAMVEEGEEVQNQETELETEEEAMTVQADIIPSPTDTSCRQETPAFQTDTTPSETGATSTPEAIPALSETTPTVVGAVSAPAEANTPQDATSAPEETK
binding [3]: binds

The next lines start with the values.

binding (FLAG-tagged Dbr1 (human) [2]): binds
B2: RBM22 (protein, UniProt Q9NW64 1-420)
chain: MATSLGSNTYNRQNWEDADFPILCQTCLGENPYIRMTKEKYGKECKICARPFTVFRWCPGVRMRFKKTEVCQTCSKLKNVCQTCLLDLEYGLPIQVRDAGLSFKDDMPKSDVNKEYYTQNMEREISNSDGTRPVGMLGKATSTSDMLLKLARTTPYYKRNRPHICSFWVKGECKRGEECPYRHEKPTDPDDPLADQNIKDRYYGINDPVADKLLKRASTMPRLDPPEDKTITTLYVGGLGDTITETDLRNHFYQFGEIRTITVVQRQQCAFIQFATRQAAEVAAEKSFNKLIVNGRRLNVKWGRSQAARGKEKEKDGTTDSGIKLEPVPGLPGALPPPPAAEEEASANYFNLPPSGPPAVVNIALPPPPGIAPPPPPGFGPHMFHPMGPPPPFMRAPGPIHYPSQDPQRMGAHAGKHSSP

binding (FLAG-tagged Dbr1 (human) [2]): binds
B4: XAB2 (protein, UniProt Q9HCS7 1-855)
chain: MVVMARLSRPERPDLVFEEEDLPYEEEIMRNQFSVKCWLRYIEFKQGAPKPRLNQLYERALKLLPCSYKLWYRYLKARRAQVKHRCVTDPAYEDVNNCHERAFVFMHKMPRLWLDYCQFLMDQGRVTHTRRTFDRALRALPITQHSRIWPLYLRFLRSHPLPETAVRGYRRFLKLSPESAEEYIEYLKSSDRLDEAAQRLATVVNDERFVSKAGKSNYQLWHELCDLISQNPDKVQSLNVDAIIRGGLTRFTDQLGKLWCSLADYYIRSGHFEKARDVYEEAIRTVMTVRDFTQVFDSYAQFEESMIAAKMETASELGREEEDDVDLELRLARFEQLISRRPLLLNSVLLRQNPHHVHEWHKRVALHQGRPREIINTYTEAVQTVDPFKATGKPHTLWVAFAKFYEDNGQLDDARVILEKATKVNFKQVDDLASVWCQCGELELRHENYDEALRLLRKATALPARRAEYFDGSEPVQNRVYKSLKVWSMLADLEESLGTFQSTKAVYDRILDLRIATPQIVINYAMFLEEHKYFEESFKAYERGISLFKWPNVSDIWSTYLTKFIARYGGRKLERARDLFEQALDGCPPKYAKTLYLLYAQLEEEWGLARHAMAVYERATRAVEPAQQYDMFNIYIKRAAEIYGVTHTRGIYQKAIEVLSDEHAREMCLRFADMECKLGEIDRARAIYSFCSQICDPRTTGAFWQTWKDFEVRHGNEDTIKEMLRIRRSVQATYNTQVNFMASQMLKVSGSATGTVSDLAPGQSGMDDMKLLEQRAEQLAAEAERDQPLRAQSKILFVRSDASREELAELAQQVNPEEIQLGEDEDEDEMDLEPNEVRLEQQSVPAAVFGSLKED

binding (FLAG-tagged Dbr1 (human) [2]): binds
B6: SRSF7 (protein, UniProt Q16629 1-238)
chain: MSRYGRYGGETKVYVGNLGTGAGKGELERAFSYYGPLRTVWIARNPPGFAFVEFEDPRDAEDAVRGLDGKVICGSRVRVELSTGMPRRSRFDRPPARRPFDPNDRCYECGEKGHYAYDCHRYSRRRRSRSRSRSHSRSRGRRYSRSRSRSRGRRSRSASPRRSRSISLRRSRSASLRRSRSGSIKGSRYFQSPSRSRSRSRSISRPRSSRSKSRSPSPKRSRSPSGSPRRSASPERMD
